These are yes or no findings as the source states them, for the method shown. Some entries that bind do so weakly or less than the wild type. Sequences can lack the tags named with a protein.

One molecule from article doi:10.1101/2025.03.13.643145 (bioRxiv, 2025) can be followed below.

For the assay, the target named is T1, secreted phospholipase A2 type IIA (UniProt P14555).
T1 sequence: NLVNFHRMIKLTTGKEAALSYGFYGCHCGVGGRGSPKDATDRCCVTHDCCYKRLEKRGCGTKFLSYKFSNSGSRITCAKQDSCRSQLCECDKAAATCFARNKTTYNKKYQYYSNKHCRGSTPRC
As to the kind of experiment: ELISA. In general terms: An ELISA detects its analyte on a solid surface through an enzyme-linked reagent.

B1: disulfide-linked cyclic site 2 peptide of integrin β3 (GST fusion protein) (peptide)
peptide: CRLAGIVQPNDGQSHVGSDNHYSASTTMC
modifications: disulfide linkage between C260 and C288 (cyclic)
As for B1, the binding result is on record as “binds”.
